Laboratory results from article PMC6066355, “Probing the binding site of novel selective positive allosteric modulators at the M1 muscarinic acetylcholine receptor” (Biochemical Pharmacology, 2018).
Residue numbers refer to the chain shown, from its start.

Experiments:
Assay in all cases: Whole cell [3H]NMS binding inhibition/interaction assay (ACh ± PAM), FlpIn CHO cells
F77^2.56I M1 mAChR = molecular target: T1, F77^2.56I M1 mAChR (Homo sapiens, UniProt P11229, F77I)
T1 construct: expressed in transfected cells
T1 sequence (P11229 1-460 F77I): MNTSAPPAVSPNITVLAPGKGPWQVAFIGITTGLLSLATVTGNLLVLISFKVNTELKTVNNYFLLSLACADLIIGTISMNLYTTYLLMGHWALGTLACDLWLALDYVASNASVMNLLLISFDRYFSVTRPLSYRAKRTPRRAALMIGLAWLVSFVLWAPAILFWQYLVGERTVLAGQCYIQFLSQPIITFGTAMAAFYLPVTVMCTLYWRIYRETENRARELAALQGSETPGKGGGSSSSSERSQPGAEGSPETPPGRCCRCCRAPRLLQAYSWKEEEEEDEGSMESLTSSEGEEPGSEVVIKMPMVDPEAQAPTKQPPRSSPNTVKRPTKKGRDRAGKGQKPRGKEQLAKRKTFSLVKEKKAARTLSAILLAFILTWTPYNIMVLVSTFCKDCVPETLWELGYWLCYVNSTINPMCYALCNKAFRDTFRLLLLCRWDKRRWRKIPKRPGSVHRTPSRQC
Protocol: (§1) Saturation binding assays were performed to estimate the expression levels and equilibrium dissociation constant of the radioligand (KD). FlpIn CHO cells stably expressing the WT or mutant c-myc hM1 mAChRs were plated at the density of 25,000 per well of 96-well white clear bottom Isoplates (PerkinElmer Life Sciences, Boston, MA), and grown overnight at 37 °C. […] Atropine at the final concentration of 100 µM was used to determine non-specific binding. The assays were terminated by rapid removal of the radioligand, and two washes with 100 µl/well ice-cold 0.9% NaCl buffer.
(§2) All data were analysed using GraphPad Prism 7 (San Diego, CA). […] Binding interaction studies between orthosteric agonists and allosteric modulators were fitted to the following allosteric ternary complex model (Eq. (1)):(1) Y=BmaxD/D+KDKB/α^′B+KB1+I/KI+B/KB+αIB/KIKB where Bmax is the total number of receptors, [D], [B] and [I] denote the concentrations of radioligand, allosteric ligand, and orthosteric ligand, respectively, and KD, KB and KI represent their respective equilibrium dissociation constants. α′ and α are the cooperativity factors between the allosteric ligand and radioligand or orthosteric ligand, respectively.

W400^7.35A M1 mAChR = molecular target: T2, W400^7.35A M1 mAChR (Homo sapiens, UniProt P11229, W400A); conditions: affinity and cooperativity could not be estimated
T2 construct: expressed in transfected cells
T2 sequence (P11229 1-460 W400A): T1 sequence (P11229 1-460 F77I) with I77F, W400A
Protocol: as §1, §2

WT M1 mAChR = molecular target: T3, WT M1 mAChR (Homo sapiens, UniProt P11229)
T3 construct: expressed in transfected cells
T3 sequence (P11229 1-460): T1 sequence (P11229 1-460 F77I) with I77F
Protocol: as §1, §2

Y179^ECL2A M1 mAChR = molecular target: T4, Y179^ECL2A M1 mAChR (Homo sapiens, UniProt P11229, Y179A); conditions: affinity and cooperativity could not be estimated
T4 construct: expressed in transfected cells
T4 sequence (P11229 1-460 Y179A): T1 sequence (P11229 1-460 F77I) with I77F, Y179A
Protocol: as §1, §2

Y82^2.61A M1 mAChR = molecular target: T5, Y82^2.61A M1 mAChR (Homo sapiens, UniProt P11229, Y82A)
T5 construct: expressed in transfected cells
T5 sequence (P11229 1-460 Y82A): T1 sequence (P11229 1-460 F77I) with I77F, Y82A
Protocol: as §1, §2

[1] = constrained to −2 where preferred model by F-test

SMILES: COc1ccc(Cn2cc(C(=O)O)c(=O)c3ccccc32)cc1 [BQCA, 1-(4-methoxybenzyl)-4-oxo-1,4-dihydroquinoline-3-carboxylic acid]
- Logα ACh (logarithm of binding cooperativity between ACh and modulator) (F77^2.56I M1 mAChR): 1.31 ± 0.12
- α ACh (binding cooperativity with ACh, antilog in brackets) (F77^2.56I M1 mAChR): 13.5
- α NMS (binding cooperativity with [3H]NMS, antilog in brackets) (F77^2.56I M1 mAChR): 0.08
- Logα NMS (logarithm of binding cooperativity between [3H]NMS and modulator) (F77^2.56I M1 mAChR; [1]): −0.90 ± 0.07
- Modulatory effect on ACh inhibition of [3H]NMS binding (W400^7.35A M1 mAChR): completely abolished
- Logα ACh (logarithm of binding cooperativity between ACh and modulator) (WT M1 mAChR): 1.32 ± 0.11
- Logα NMS (logarithm of binding cooperativity between [3H]NMS and modulator) (WT M1 mAChR; [1]): −1.07 ± 0.10
- Modulatory effect on ACh inhibition of [3H]NMS binding (Y179^ECL2A M1 mAChR): completely abolished
- Logα ACh (logarithm of binding cooperativity between ACh and modulator) (Y82^2.61A M1 mAChR): 1.58 ± 0.11
- Logα NMS (logarithm of binding cooperativity between [3H]NMS and modulator) (Y82^2.61A M1 mAChR): −0.84 ± 0.06
- α ACh (binding cooperativity with ACh, antilog in brackets) (Y82^2.61A M1 mAChR): 30.2
